Source: US20240218065A1
No constants are given. Whether binding was seen depends on the method and setting. Some results given as binding are weak or reduced against the parent protein; the word gives no strength. For some assays here: Sequences can lack the tags named with a protein.

Chains of the proteins cited; added tags and fusions are not shown. Residues count along the entry.
UniProt O14931, residues 19-138: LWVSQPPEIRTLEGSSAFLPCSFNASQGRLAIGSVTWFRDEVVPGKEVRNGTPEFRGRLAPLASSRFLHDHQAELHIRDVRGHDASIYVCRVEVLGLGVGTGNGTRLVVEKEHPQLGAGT

T1: Human-CD24-His (Acro, cat: CD4-H5254) (human) (UniProt P25063)
T1 sequence (looked up): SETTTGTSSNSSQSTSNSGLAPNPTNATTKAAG

B1: NKP30 humanized antibody (antibody, V domains shown)
VH: EVQLVESGGGLVQPGGSLRLSCAASGITFSRSVMGWFRQAPGKLRELVAGITSDDNTDYADSVKGRFTISRDNSKNTLYLQMNSLRAEDTAVYYCNILPDSRLGWGQGTLVTVSS
B2: CD24 monoclonal antibody (antibody, human IgG1, kappa, V domains shown)
VH: QVQLVQSGSELKKPGASVKVSCKASGYIFTDYAIHWVRQAPGQGLEWMGFINTATGEPTYADDFKGRFVFSLDTSVSTAYLQISSLKAEDTAVYFCTSGVHWGQGTLVTVSS
VL: DIQMTQSPSTLSASVGDRVTITCSASSSVSSMHWYQQKPGKAPKLLIYSTSNLASGVPSRFSGSGSGTEYTLTISSLQPDDFATYYCHHWTSYMYTFGGGTKVEIKR

Assays:
[1] = biological target: Human-NKP30-His (Kactus, cat: NKP-HM430) (human) (UniProt O14931); assay: ELISA: Human-NKP30-His coated, antibody titrated 3-fold from 10 µg/mL, HRP goat anti-human IgG-Fc, OD450-OD570
[2] = biological target: Human-NKP30-His (Kactus, cat: NKP-HM430) (human) (UniProt O14931); assay: ELISA, Human-NKP30-His coated, anti-human IgG-Fc HRP
[3] = biological target: Human-NKP30-His (Kactus, cat: NKP-HM430) (human) (UniProt O14931); assay: ELISA: Human-NKP30-His coated at 0.2 µg/mL, antibody titrated 3-fold from 10 µg/mL (7 points), HRP goat anti-human IgG-Fc, OD450-OD570
[4] = biological target: T1, Human-CD24-His (Acro, cat: CD4-H5254) (human); assay: ELISA, Human-CD24-His coated, anti-human IgG-Fc HRP
[5] = biological target: T1, Human-CD24-His (Acro, cat: CD4-H5254) (human); assay: ELISA: Human-CD24-His coated at 0.2 µg/mL, antibody titrated 3-fold (7 points), HRP goat anti-human IgG-Fc, OD450-OD570

Row | Binder | binding [1] | binding [2] | binding [3] | binding [4] | binding [5]
1 | B1 | binds | binds | binds |  | 
2 | B2 |  |  |  | binds | binds
